Data published in paper PMC9435518.

Molecular target: T1, TNF receptor-associated factor 6 (rat (endogenous in H9c2)) (UniProt B5DF45)
T1 sequence: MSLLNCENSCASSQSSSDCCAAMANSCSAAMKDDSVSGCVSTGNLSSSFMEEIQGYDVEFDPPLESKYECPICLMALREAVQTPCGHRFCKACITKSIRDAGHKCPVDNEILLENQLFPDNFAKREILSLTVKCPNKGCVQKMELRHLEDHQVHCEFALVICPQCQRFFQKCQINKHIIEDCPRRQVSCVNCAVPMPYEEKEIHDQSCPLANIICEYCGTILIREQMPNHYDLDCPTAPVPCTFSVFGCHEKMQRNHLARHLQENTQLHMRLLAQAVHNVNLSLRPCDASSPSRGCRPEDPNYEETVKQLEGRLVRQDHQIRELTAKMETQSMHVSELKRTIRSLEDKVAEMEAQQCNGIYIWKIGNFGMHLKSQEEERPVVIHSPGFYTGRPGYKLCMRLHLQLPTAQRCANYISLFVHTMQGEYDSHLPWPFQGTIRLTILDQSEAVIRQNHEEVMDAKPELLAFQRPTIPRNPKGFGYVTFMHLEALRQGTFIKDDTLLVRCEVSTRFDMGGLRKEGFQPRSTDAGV
Assay: co-IP; H9c2 cells after H/R; lysed in IP buffer (20 mmol/L Tris-HCl pH 8.0, 150 mmol/L NaCl, 0.5% NP-40, 1 mmol/L EDTA, protease inhibitors); TRAF6 antibody or normal IgG, protein A/G agarose beads 3 h at 4 °C; immunoblot

binding: binds
Substance: Tripartite motif (TRIM) 38 (rat (endogenous in H9c2))

Results are given in words; binding and its absence hold for the method and conditions named. Binding seen in cells or lysates may run through a third protein. Binding can be weak; no strength is given.
